These are yes or no findings as the source states them, for the method shown. Binding seen in cells or lysates may run through a third protein. Binding can be weak; no strength is given. Tags and fused reporters may be left off the sequences shown.
What was measured:
Test in all cases: co-IP; S2 cells transfected with plasmids for two tagged STRIPAK proteins (binary co-expression); lysates immunoprecipitated with anti-HA or anti-HSV; immunoblot of immunoprecipitates and lysates
HA-CKA (Drosophila) = target: HA-CKA (Drosophila)
HSV-STRIP (Drosophila) = target: HSV-STRIP (Drosophila)
HSV-SLMAP (Drosophila) = target: HSV-SLMAP (Drosophila)

binding (HA-CKA (Drosophila)): binds
binding (HSV-STRIP (Drosophila)): binds
binding (HSV-SLMAP (Drosophila)): binds
B1: GFP-FGOP2 (protein, UniProt Q9VM65 1-315)
chain: MSNLSVGQIIMDAQRMASRVKDLDALGTALLEEAENNNRLVESLRQYQDDIESLNRISNNKTNADMVNRIQQQNINSSEILKENRELKIFIEDYERAMELMMQKYREHTVSKVLDSKFSFKELYNERMWQVIREQREKINEMAAVMQLAASVDDGVVQRELQTISQLRLENETLRELLQISKQYGSSQRPIRESDHLLEEKAVQTDSTADDSADDLSISGASVENMNNNSVIQMYSSPEQPAKVAGTTNSFNTAPVHSQSETQAPSVTLETAPPGEEPLANDNNNGPAVNTTSAPPPATTSNESVEDQATVAPAT

— paper PMC3958334
